This passage reports binding results from paper PMC11607428, “Broadly conserved FlgV controls flagellar assembly and Borrelia burgdorferi dissemination in mice” (Nature Communications, 2024).

These are yes or no findings as the source states them, for the method shown. Some entries that bind do so weakly or less than the wild type. For some assays here: Sequences can lack the tags named with a protein.

Experiment [1] has as its target FlgV (BB0268), B. burgdorferi (B. burgdorferi) (UniProt Q44756). As to the kind of experiment: immunoblot after SDS-PAGE (higher molecular weight band); WT B. burgdorferi (PA001) lysed by sonication, fractionated by ultracentrifugation into soluble and membrane samples, Tris-Glycine gel, probed with anti-FlgV. (Immunoblotting shows a protein as a band on a membrane.)

In experiment [2] the target is BB0268-3XFLAG (FlgV with a C-terminal 3XFLAG tag) (B. burgdorferi) (UniProt Q44756). Kind of experiment: immunoblot after SDS-PAGE (higher molecular weight band); B. burgdorferi PA007 cells exposed to UV, lysed, BB0268-3XFLAG immunoprecipitated with anti-FLAG beads; total, supernatant and IP samples on a Tris-Glycine gel, probed with anti-FLAG.

B1: FlgV (BB0268), B. burgdorferi (natural protein)
chain: MFISRELKYILLTSVSALFISAVLGLFCGLSFFTILVRSLLQFVFFFVIGLLIEYIFKKYLSNLFSTELSGNMENKPQDDKKSDKDFKENLDFQNKNSLYENSQNISSSGDFIEEVKKYKFETEDVSRGSDKNKKMSFIEDNDPKVVADAIKTLMSKKE
notes: FlgV (BB0268) of Borrelia burgdorferi B31; ORF of 480 bp; antigen for the antibody was amino acids 58-159; two predicted transmembrane helices (amino acids 13 to 35 and 40 to 57); native flgV ORF amplified from B. burgdorferi A3 genomic DNA for the overexpression plasmid; Untagged protein; Strains, plasmids and primers are in Supplementary Data 1; also called bb0268 gene product; previously …
Regarding B1, the binding entry in experiment [1] is given as “binds”.

B2: BB0268-3XFLAG (FlgV with a C-terminal 3XFLAG tag) (protein, UniProt Q44756 1-159)
chain: B1 chain
Regarding B2, the binding result in experiment [2] was “binds”.
